Measured values as given in article PMC7862700.
The list shows a part of the results, in another mix than the full data. At the low end of the ranking the order means little.

Amino acid sequences for entries named in this document (tags omitted). A change or cut given only in a name is not applied to a line headed by its entry.
UniProt Q01892: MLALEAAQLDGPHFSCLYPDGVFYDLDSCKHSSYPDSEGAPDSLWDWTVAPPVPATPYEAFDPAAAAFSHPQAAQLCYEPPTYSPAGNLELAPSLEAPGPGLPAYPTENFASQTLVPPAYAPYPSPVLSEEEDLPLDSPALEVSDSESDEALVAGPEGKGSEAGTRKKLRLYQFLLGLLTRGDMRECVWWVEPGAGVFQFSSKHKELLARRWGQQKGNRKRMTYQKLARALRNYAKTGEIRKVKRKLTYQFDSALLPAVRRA
UniProt P41161: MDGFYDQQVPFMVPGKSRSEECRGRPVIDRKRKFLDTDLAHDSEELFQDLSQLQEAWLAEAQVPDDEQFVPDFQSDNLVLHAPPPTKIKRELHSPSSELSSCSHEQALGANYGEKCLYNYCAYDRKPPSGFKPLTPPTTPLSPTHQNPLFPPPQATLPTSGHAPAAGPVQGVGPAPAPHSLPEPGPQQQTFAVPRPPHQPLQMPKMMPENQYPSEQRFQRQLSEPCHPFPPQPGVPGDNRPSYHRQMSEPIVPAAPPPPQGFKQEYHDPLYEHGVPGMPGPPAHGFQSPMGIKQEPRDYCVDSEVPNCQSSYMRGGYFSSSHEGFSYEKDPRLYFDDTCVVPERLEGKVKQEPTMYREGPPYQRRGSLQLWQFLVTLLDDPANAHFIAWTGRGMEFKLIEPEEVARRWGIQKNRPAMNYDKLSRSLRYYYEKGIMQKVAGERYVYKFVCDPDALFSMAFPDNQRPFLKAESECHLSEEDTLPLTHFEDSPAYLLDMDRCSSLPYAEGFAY
UniProt Q99607: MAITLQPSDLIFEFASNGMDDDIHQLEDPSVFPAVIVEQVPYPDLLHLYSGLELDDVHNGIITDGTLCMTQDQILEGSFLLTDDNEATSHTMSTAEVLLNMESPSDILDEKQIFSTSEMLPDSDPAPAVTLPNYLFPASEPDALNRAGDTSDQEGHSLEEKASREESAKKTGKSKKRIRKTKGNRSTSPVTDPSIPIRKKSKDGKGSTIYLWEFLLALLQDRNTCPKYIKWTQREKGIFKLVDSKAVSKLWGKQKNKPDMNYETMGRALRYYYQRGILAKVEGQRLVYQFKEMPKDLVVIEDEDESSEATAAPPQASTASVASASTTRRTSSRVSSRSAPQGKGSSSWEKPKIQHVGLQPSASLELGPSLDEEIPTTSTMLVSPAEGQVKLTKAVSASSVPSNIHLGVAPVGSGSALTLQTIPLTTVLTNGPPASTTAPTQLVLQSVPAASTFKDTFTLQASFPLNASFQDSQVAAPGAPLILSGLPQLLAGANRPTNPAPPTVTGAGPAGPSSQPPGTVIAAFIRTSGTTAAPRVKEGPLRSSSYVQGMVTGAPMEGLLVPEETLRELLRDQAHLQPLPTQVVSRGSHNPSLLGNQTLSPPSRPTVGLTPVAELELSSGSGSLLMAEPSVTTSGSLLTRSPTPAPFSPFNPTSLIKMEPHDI

Key:
Assay in all cases: DAPPL (digital affinity profiling via proximity ligation, sequencing)
Details in all cases: 10 mM Tris-HCl pH 7.5, 50 mM NaCl, 1 mM DTT, 4% glycerol, room temperature, 30 min; GST-TFs on glutathione beads, 16-mer random dsDNA library, 0.1% …; high values mean tight binding; double strand, one strand shown; scale: fold enrichment (6-mer frequency, TF over GST control)
[1] = target: T1, FLI1 (UniProt Q01543)
T1 sequence: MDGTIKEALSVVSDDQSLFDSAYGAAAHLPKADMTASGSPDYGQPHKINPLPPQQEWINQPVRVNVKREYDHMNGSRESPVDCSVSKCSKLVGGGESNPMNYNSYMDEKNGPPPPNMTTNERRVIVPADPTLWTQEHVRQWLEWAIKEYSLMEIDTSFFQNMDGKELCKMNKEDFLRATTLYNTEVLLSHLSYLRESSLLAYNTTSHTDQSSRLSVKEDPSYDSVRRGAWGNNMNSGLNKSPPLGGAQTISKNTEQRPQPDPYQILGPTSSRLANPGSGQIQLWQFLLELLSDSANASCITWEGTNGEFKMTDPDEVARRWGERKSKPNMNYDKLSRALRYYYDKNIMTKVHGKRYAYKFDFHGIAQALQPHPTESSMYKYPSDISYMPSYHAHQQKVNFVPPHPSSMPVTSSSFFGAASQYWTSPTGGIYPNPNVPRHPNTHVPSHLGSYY

[2] = target: T2, EHF (UniProt Q9NZC4)
T2 sequence: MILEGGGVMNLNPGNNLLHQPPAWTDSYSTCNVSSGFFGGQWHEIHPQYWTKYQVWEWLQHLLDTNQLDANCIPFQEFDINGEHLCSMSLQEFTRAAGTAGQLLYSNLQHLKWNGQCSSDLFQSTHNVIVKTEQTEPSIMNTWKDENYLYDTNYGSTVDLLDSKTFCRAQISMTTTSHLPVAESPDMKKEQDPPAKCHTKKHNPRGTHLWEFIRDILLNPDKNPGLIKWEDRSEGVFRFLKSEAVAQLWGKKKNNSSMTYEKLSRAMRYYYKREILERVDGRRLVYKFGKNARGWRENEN

[3] = target: SPIB (UniProt Q01892)
[4] = target: ETV5 (UniProt P41161)
[5] = target: ELF4 (UniProt Q99607)
[6] = target: T3, ETV2 (UniProt O00321)
T3 sequence: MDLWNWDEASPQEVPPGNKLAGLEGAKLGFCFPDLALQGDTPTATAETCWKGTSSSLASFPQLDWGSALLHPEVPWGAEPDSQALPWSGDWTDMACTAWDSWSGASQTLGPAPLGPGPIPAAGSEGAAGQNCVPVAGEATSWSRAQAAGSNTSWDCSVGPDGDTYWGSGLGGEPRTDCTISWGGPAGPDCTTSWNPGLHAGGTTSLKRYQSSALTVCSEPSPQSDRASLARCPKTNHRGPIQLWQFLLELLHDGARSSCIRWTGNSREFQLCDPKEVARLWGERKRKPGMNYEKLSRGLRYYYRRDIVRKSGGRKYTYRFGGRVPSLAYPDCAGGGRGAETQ

[7] = target: T4, ETV3L (UniProt Q6ZN32)
T4 sequence: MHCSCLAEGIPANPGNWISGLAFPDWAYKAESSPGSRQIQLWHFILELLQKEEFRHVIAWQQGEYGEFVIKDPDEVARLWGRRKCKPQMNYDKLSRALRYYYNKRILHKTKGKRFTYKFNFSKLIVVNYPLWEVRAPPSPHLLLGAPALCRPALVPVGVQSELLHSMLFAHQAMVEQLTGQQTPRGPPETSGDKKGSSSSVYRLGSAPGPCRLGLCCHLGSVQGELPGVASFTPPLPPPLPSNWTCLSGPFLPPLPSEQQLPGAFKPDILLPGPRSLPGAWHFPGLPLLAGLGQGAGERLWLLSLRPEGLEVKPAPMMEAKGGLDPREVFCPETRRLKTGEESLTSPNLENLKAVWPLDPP

Row | Sequence | binding signal [1] | binding signal [2] | binding signal [3] | binding signal [4] | binding signal [5] | binding signal [6] | binding signal [7]
1 | CAGAGG | 0.618 | 0.618 | 0.578 | 0.612 | 0.64 | 0.696 | 0.598
2 | AAAGTG | 0.886 | 0.936 | 0.924 | 0.884 | 0.948 | 0.934 | 0.897
3 | GCGTGG | 0.509 | 0.524 | 0.589 | 0.521 | 0.563 | 0.543 | 0.612
4 | TCGGTT | 0.878 | 0.865 | 0.828 | 0.763 | 0.778 | 0.777 | 0.713
5 | CAGGCT | 0.822 | 0.799 | 0.834 | 0.833 | 0.81 | 0.781 | 0.8
6 | GATCCG | 0.989 | 0.95 |  | 0.993 | 0.9 | 0.941 | 0.979
7 | GCCAGT | 0.322 | 0.314 | 0.323 | 0.303 | 0.326 | 0.272 | 0.304
8 | GGGTCT | 0.858 | 0.98 | 0.811 | 0.857 | 0.867 | 0.927 | 0.869
9 | GTCGGC | 0.346 | 0.402 | 0.41 | 0.367 | 0.385 | 0.44 | 0.353
10 | TGCAGG | 0.961 | 0.976 |  | 0.986 | 0.948 | 1.03 | 0.954
11 | GACTCA | 1.06 | 0.929 |  | 0.949 | 0.993 | 0.981 | 0.9
12 | TTCGGA | 0.735 | 0.708 | 0.728 | 0.794 | 0.7 | 0.712 | 0.791
13 | GTGATC | 0.834 | 0.901 | 0.778 | 0.774 | 0.818 | 0.886 | 0.771
14 | ACGTAG | 0.799 | 0.751 | 0.717 | 0.759 | 0.805 | 0.657 | 0.743
15 | GGTGGG | 0.7 | 0.672 | 0.604 | 0.656 | 0.62 | 0.614 | 0.695
16 | CCAGTG | 0.481 | 0.443 | 0.426 | 0.466 | 0.458 | 0.392 | 0.455
17 | TGCGAG | 0.898 | 0.929 |  | 0.917 | 0.878 | 0.849 | 0.875
18 | ATCGGT | 0.693 | 0.746 | 0.642 | 0.681 | 0.67 | 0.698 | 0.693
19 | GAAGAG | 0.886 | 0.921 | 0.913 | 0.892 | 0.896 | 0.871 | 0.868
20 | AGCCGC | 0.93 | 0.922 | 0.761 | 0.789 | 0.925 | 0.777 | 0.87
21 | TCGCAG | 0.862 | 0.841 |  | 0.846 | 0.893 | 0.982 | 0.846

Row | Sequence | binding signal [1] | binding signal [2] | binding signal [3] | binding signal [4] | binding signal [5] | binding signal [6] | binding signal [7]
22 | GCGTCG | 0.699 | 0.71 | 0.769 | 0.733 | 0.708 | 0.764 | 0.748
23 | GTGAGA | 0.346 | 0.306 | 0.31 | 0.322 | 0.328 | 0.314 | 0.307
24 | CGGACT | 0.846 | 0.91 | 0.876 | 0.853 | 0.859 | 0.82 | 0.885
25 | GGCGGC | 0.534 | 0.532 | 0.629 | 0.572 | 0.584 | 0.72 | 0.57
26 | GTGGTG | 0.871 | 0.889 |  | 0.936 | 0.904 | 0.732 | 0.95
27 | CGGTAC | 0.969 | 0.956 |  | 0.952 | 0.879 | 0.822 | 0.993
28 | ACAGGT | 0.699 | 0.695 | 0.692 | 0.837 | 0.754 | 0.815 | 0.773
29 | GGGTGG | 0.776 | 0.814 | 0.777 | 0.894 | 0.735 | 0.698 | 0.805
30 | TTCGTG | 0.886 | 0.847 |  | 0.91 | 0.877 | 0.751 | 0.969
31 | GAACAG | 0.909 |  |  | 0.93 | 0.924 | 0.906 | 0.948
32 | GGTGAG | 0.367 | 0.344 | 0.339 | 0.373 | 0.356 | 0.311 | 0.353
33 | GGATGA | 0.927 |  |  | 0.963 | 0.919 | 0.759 | 0.957
34 | AGCGTA | 0.918 | 0.918 |  | 0.924 | 0.94 | 0.906 | 0.961
35 | GACAAC | 0.932 | 0.954 | 0.911 | 0.935 | 0.973 | 0.953 | 0.912
36 | CGGAGT | 0.339 | 0.33 | 0.333 | 0.312 | 0.305 | 0.368 | 0.362
37 | TCGTAG | 0.867 | 0.84 | 0.868 | 0.855 | 0.881 | 0.785 | 0.878
38 | CGGTAG | 0.699 | 0.715 | 0.65 | 0.752 | 0.771 | 0.71 | 0.743
39 | GAACGC | 0.701 | 0.742 | 0.772 | 0.769 | 0.803 | 0.718 | 0.783
40 | GACCCG | 0.884 | 0.968 | 0.807 | 0.916 | 0.868 | 0.772 | 0.825
41 | GCGAGA | 0.52 | 0.505 | 0.5 | 0.518 | 0.489 | 0.577 | 0.515
42 | GAGGTA | 0.669 | 0.634 | 0.692 | 0.677 | 0.661 | 0.648 | 0.605

4 entries from above in a different format.
Row	Sequence	binding signal [1]	binding signal [2]	binding signal [3]	binding signal [4]	binding signal [5]	binding signal [6]	binding signal [7]
26	GTGGTG	0.871	0.889		0.936	0.904	0.732	0.95
33	GGATGA	0.927			0.963	0.919	0.759	0.957
39	GAACGC	0.701	0.742	0.772	0.769	0.803	0.718	0.783
41	GCGAGA	0.52	0.505	0.5	0.518	0.489	0.577	0.515

Continued:

Row | Sequence | binding signal [1] | binding signal [2] | binding signal [3] | binding signal [4] | binding signal [5] | binding signal [6] | binding signal [7]
43 | CATGGA | 0.899 | 0.96 | 0.858 | 0.891 | 0.93 | 0.804 | 0.918
44 | CAATCG | 0.888 | 0.858 | 0.819 | 0.862 | 0.857 | 0.882 | 0.917
45 | GGCAAG | 0.72 | 0.723 | 0.679 | 0.705 | 0.714 | 0.583 | 0.739
46 | GGTCGT | 0.586 | 0.669 | 0.657 | 0.648 | 0.64 | 0.692 | 0.61
47 | CCAAGG | 0.924 | 0.889 | 0.827 | 0.831 | 0.922 | 0.875 | 0.946
48 | GTCAAC | 0.968 | 0.889 | 0.911 | 0.912 | 0.934 | 0.933 | 0.942
49 | TACGTG | 0.702 | 0.732 | 0.666 | 0.729 | 0.697 | 0.735 | 0.741
50 | TAGGAC | 0.868 | 0.891 | 0.84 | 0.917 | 0.891 | 0.881 | 0.911
51 | ACGGCG | 0.797 | 0.784 | 0.784 | 0.784 | 0.82 | 0.848 | 0.898
52 | TCGTGA | 0.344 | 0.366 | 0.323 | 0.327 | 0.352 | 0.283 | 0.364
53 | GACAAA | 0.934 | 0.947 | 0.924 | 0.966 | 0.965 | 0.938 | 0.968
54 | TGGAGG | 0.488 | 0.475 | 0.509 | 0.544 | 0.433 | 0.493 | 0.527
55 | AGACTG | 0.536 | 0.527 | 0.512 | 0.541 | 0.564 | 0.489 | 0.516
56 | CCGCGA | 0.736 | 0.657 | 0.734 | 0.718 | 0.794 | 0.788 | 0.734
57 | GTGGGT | 0.461 | 0.486 | 0.425 | 0.468 | 0.441 | 0.517 | 0.544
58 | GGAGGG | 0.333 | 0.298 | 0.332 | 0.331 | 0.272 | 0.293 | 0.331
59 | GGACAA | 0.822 | 0.752 | 0.819 | 0.783 | 0.816 | 0.838 | 0.766
60 | TACCGT | 0.644 | 0.647 | 0.659 | 0.638 | 0.684 | 0.638 | 0.706
61 | GACGCA | 0.529 | 0.546 | 0.533 | 0.564 | 0.574 | 0.53 | 0.571
